Data published in patent US20150218523A1, “MANUFACTURE OF VASCULAR SMOOTH MUSCLE CELLS AND THE USE” (Agency for Science, Technology and Research, priority 2014, published 2015).

Test system: NCSMCs derived from hESC (H9)
Conditions: NCSMCs at 1% oxygen, drug 48 hr (atorvastatin 0.5 μM), then labeled Aβ40 (2 mg/ml) for 1 hr; p=0.0492

CC(C)c1c(C(=O)Nc2ccccc2)c(-c2ccccc2)c(-c2ccc(F)cc2)n1CC[C@@H](O)C[C@@H](O)CC(=O)O [atorvastatin]
Aβ40 uptake over the vehicle controls (cell-associated Aβ, mean fluorescence brightness normalized to no-uptake control): significantly increased
